From patent US20070123537A1, “Quinazoline derivatives for the treatment of herpesviral infections” (GPC Biotech AG, priority 2003, published 2007)
The match of structure and compound is tentative.

System: HEK 293 cells
Assay: Toxicity assay in HEK 293 cells
Type: cell-based
Experimental: Toxicity Assay: Toxicity of the quinazoline derivatives was measured by incubating HEK 293 cells with 10 μM of each derivative. The corresponding amount of DMSO served as control.

Compound: Brc1cccc(Nc2ncnc3ccccc23)c1
- Viability [%] at 10 μM: 98%
